Laboratory results as given in PMC8547954, “Myopalladin knockout mice develop cardiac dilation and show a maladaptive response to mechanical pressure overload” (eLife, 2021).
No constants are given. Whether binding was seen depends on the method and setting. Some binding calls cover weakened binding; strength is not graded here.

Sequences of proteins named here, by UniProt entry; tags and fusion partners are left off. Residues count along the entry.
UniProt Q8WZ42, residues 942-1173: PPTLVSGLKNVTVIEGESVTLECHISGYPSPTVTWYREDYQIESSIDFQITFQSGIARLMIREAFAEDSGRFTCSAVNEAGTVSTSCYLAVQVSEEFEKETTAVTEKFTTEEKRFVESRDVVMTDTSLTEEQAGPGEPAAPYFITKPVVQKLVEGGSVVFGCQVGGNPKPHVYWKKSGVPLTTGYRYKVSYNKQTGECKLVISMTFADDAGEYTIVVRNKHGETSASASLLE

Molecular target: titin Ig domains Z4-Z5 (Res. 942-1173), bait in a modified pLexA vector (human) (UniProt Q8WZ42)
Assay: two-hybrid; library screen: titin Z4-Z5 bait in modified pLexA in S. cerevisiae L40, human skeletal muscle cDNA library in pGAD10; SD/-His/-Leu/-Trp, 30°C, beta-galactosidase colony lift filter assay

B1: myopalladin (MYPN) library clones, the longest starting at amino acid 814 (domain or fragment, UniProt Q86TC9-1 814-1320)
chain: PIPVSPTSRIQNPVAFLSSVLPSLPAIPPTNAMGLPRSAPSMPSQGLAKKNTKSPQPVNDDNIRETKNAVIRDLGKKITFSDVRPNQQEYKISSFEQRLMNEIEFRLERTPVDESDDEIQHDEIPTGKCIAPIFDKRLKHFRVTEGSPVTFTCKIVGIPVPKVYWFKDGKQISKRNEHCKMRREGDGTCSLHIESTTSDDDGNYTIMAANPQGRISCSGHLMVQSLPIRSRLTSAGQSHRGRSRVQERDKEPLQERFFRPHFLQAPGDMVAHEGRLCRLDCKVSGLPPPELTWLLNGQPVLPDASHKMLVRETGVHSLLIDPLTQRDAGTYKCIATNKTGQNSFSLELSVVAKEVKKAPVILEKLQNCGVPEGHPVRLECRVIGMPPPVFYWKKDNETIPCTRERISMHQDTTGYACLLIQPAKKSDAGWYTLSAKNEAGIVSCTARLDIYAQWHHQIPPPMSVRPSGSRYGSLTSKGLDIFSAFSSMESTMVYSCSSRSVVESDEL
In the case of B1, the binding is reported as “binds”.
